According to article PMC12314576, “The Actin‐Binding Prolyl‐Isomerase Par17 Sustains Its Substrate Selectivity by Interdomain Allostery” (Proteins, 2025):
No constants are given. Whether binding was seen depends on the method and setting. Some entries that bind do so weakly or less than the wild type.

Experiments:
Assay in all cases: peptide or protein array; 12-mers of β-actin (2 amino acids per step) SPOT-synthesised on cellulose membranes, blocked with 5% BSA in PBS, incubated overnight with Atto594-labeled Par14 or Par17, washed with PBS, fluorescence imaged; runs of three or more spots classified as possible binding sites; both purified
β-actin 12-mer, spot C3 = target: T1, β-actin 12-mer, spot C3
T1 sequence (peptide): IWHHTFYNELRV

β-actin 12-mer, spot D5 = target: T2, β-actin 12-mer, spot D5
T2 sequence (peptide): EGYALPHAILRL

β-actin 12-mer, spot D9 = target: T3, β-actin 12-mer, spot D9
T3 sequence (peptide): IKIIAPPERKYS

β-actin 12-mer, spot E5 = target: T4, β-actin 12-mer, spot E5
T4 sequence (peptide): YALPHAILRLDL

β-actin 12-mer, spot F5 = target: T5, β-actin 12-mer, spot F5
T5 sequence (peptide): LPHAILRLDLAG

β-actin 12-mer, spot F7 = target: T6, β-actin 12-mer, spot F7
T6 sequence (peptide): GNERFRCPEALF

β-actin 12-mer, spot G2 = target: T7, β-actin 12-mer, spot G2
T7 sequence (peptide): YVGDEAQSKRGI

β-actin 12-mer, spot H2 = target: T8, β-actin 12-mer, spot H2
T8 sequence (peptide): GDEAQSKRGILT

β-actin 12-mer, spot H7 = target: T9, β-actin 12-mer, spot H7
T9 sequence (peptide): FRCPEALFQPSF

β-actin 12-mer, spot I2 = target: T10, β-actin 12-mer, spot I2
T10 sequence (peptide): EAQSKRGILTLK

β-actin 12-mer, spot J4 = target: T11, β-actin 12-mer, spot J4
T11 sequence (peptide): VLSLYASGRTTG

β-actin 12-mer, spot J8 = target: T12, β-actin 12-mer, spot J8
T12 sequence (peptide): LSGGTTMYPGIA

β-actin 12-mer, spot K8 = target: T13, β-actin 12-mer, spot K8
T13 sequence (peptide): GGTTMYPGIADR

β-actin 12-mer, spot P5 = target: T14, β-actin 12-mer, spot P5
T14 sequence (peptide): KILTERGYSFTT

β-actin 12-mer, spot Q5 = target: T15, β-actin 12-mer, spot Q5
T15 sequence (peptide): LTERGYSFTTTA

β-actin 12-mer, spot S1 = target: T16, β-actin 12-mer, spot S1
T16 sequence (peptide): RPRHQGVMVGMG

Measured: binding

Atto594-labeled Par17 (from UniProt Q9Y237-2 3-156) (enzyme)
binds: β-actin 12-mer, spot C3 | β-actin 12-mer, spot D5 | β-actin 12-mer, spot D9 | β-actin 12-mer, spot E5 | β-actin 12-mer, spot F5 | β-actin 12-mer, spot F7 | β-actin 12-mer, spot G2 | β-actin 12-mer, spot H2 | β-actin 12-mer, spot H7 | β-actin 12-mer, spot I2 | β-actin 12-mer, spot J4 | β-actin 12-mer, spot J8 | β-actin 12-mer, spot K8 | β-actin 12-mer, spot P5 | β-actin 12-mer, spot Q5 | β-actin 12-mer, spot S1
